# Laboratory results published in PubChem BioAssay AID504467 (National Center for Advancing Translational Sciences (NCATS), 2011).
# The campaign covered roughly 330,000 compounds. About 7,700 (2.3%) were called active. Inconclusive results, whose numbers are uncertain, are shown with a selection of clear calls. Calls come from the whole dose curve; as a rule, active = well fitted inhibition curve with a large enough effect; inconclusive = small, poorly fitted or top-dose-only effect, or effect the other way; inactive = flat fitted curve, though single readings scatter. Potencies beside an inconclusive call are fits to weak or partial responses and may not hold up. Non-standard residues stand in square brackets, D forms with d. Residues, ends and D or L forms follow the SMILES beside them. NMeY = CN[C@@H](Cc1ccc(O)cc1)C(=O)O; NMeF = CN[C@@H](Cc1ccccc1)C(=O)O; 2Abz = Nc1ccccc1C(=O)O
# Test: qHTS screen for small molecules that inhibit ELG1-dependent DNA repair in human embryonic kidney (HEK293T) cells expressing luciferase-tagged ELG1; note: nearly all actives have a fitted effect of over 55% in size
# Settings: HEK293T ELG1-luciferase reporter, luminescence, 16 h, DNA damage induced by 5-fluorouridine; activity change, negative = inhibition: at 46.1 µM (top of the series)
# Outline: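 Step one: seed 2,000 cells per well. Step two: pin-transfer compound or DMSO alongside 5-fluorouridine. Step three: incubate 16 hr, 37 °C, 5% CO2. Step four: add ONE-Glo, wait 30 min, read luminescence.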
# % is set by controls: 0 for no effect and ±100 for the full control effect; potency is the fitted concentration of half-maximal effect.
Structure (SMILES),Potency,"activity change, negative = inhibition"
CCOc1ccc(N(C(=O)c2cnccn2)C(C(=O)NC2CCCCC2)c2ccc(O)cc2)cc1 (stereo not drawn),"inconclusive: 23.1 µM [activator, single point]",–
COC(=O)CNC(c1ccccc1Cl)c1cc(Br)ccc1NS(=O)(=O)c1ccc(C)cc1 (stereo not drawn),–,inactive: 12.9%
CC(C(=O)NC1CCCCC1)N1CCN(S(=O)(=O)c2cccs2)CC1 (stereo not drawn),–,inactive: 10.4%
CCOC(=O)N1CCc2c(sc3c2c(=O)n(Cc2ccccc2)c(=O)n3CC(=O)NCC2CCCO2)C1 (stereo not drawn),–,inactive: -8.32%
CCOc1ccc(-c2nnc3ccc(SCC(=O)Nc4nc5ccccc5s4)nn23)cc1,active: 7.31 µM,–
O=C(c1cccs1)N1CCCC(c2nc3c(nnn3Cc3ccc(F)cc3)c(=O)[nH]2)C1 (stereo not drawn),"inconclusive: 23.1 µM [inhibitor, partial curve, poor fit]",–
COc1ccc(C2=NN(Cc3ccccc3)C3C(=O)NC(=O)C23)cc1 (stereo not drawn),"inconclusive: 16.4 µM [activator, partial curve, poor fit]",–
Cc1nnc2ccc(-c3ccc(NC(=O)Cc4cccs4)cc3)nn12,"inconclusive: 20.6 µM [activator, partial curve]",–
O=C(c1ccc(COc2ccc(F)cc2)o1)n1cccn1,–,inactive: 16.8%
COc1cccc(-n2c(SCC(=O)Nc3sc4c(c3C(N)=O)CCC4)nc3ccccc3c2=O)c1,active: 6.51 µM,–
O=C(Nc1ccc(Cl)cn1)c1ccc2c(Cl)c3c(nc2c1)CCC3,"inconclusive: 1.03 µM [activator, full curve]",–
CCCc1ccc2oc(C(=O)N3CCC(O)CC3)c(C)c2c1,"inconclusive: 9.2 µM [activator, partial curve]",–
CCc1ccc(Nc2nc(N3CCOCC3)nc(N3CCOCC3)n2)cc1,"inconclusive: 18.3 µM [inhibitor, partial curve]",–
Cc1nn(Cc2ccccc2)c(C)c1NC(=O)c1cc2nc(-c3ccco3)cc(C(F)(F)F)n2n1,"inconclusive: 23.1 µM [inhibitor, single point]",–
CCCn1c(N)cc(=O)n(CCC)c1=O,–,inactive: 0.145%
COc1cc(NC(=O)COC(=O)CC(C)(C)C)c(C)cc1[N+](=O)[O-],"inconclusive: 9.2 µM [inhibitor, partial curve]",–
O=[N+]([O-])c1cc(S(=O)(=O)C(F)(F)F)ccc1Sc1nc2ccccc2[nH]1,"inconclusive: 18.4 µM [activator, partial curve]",–
Cc1nc(NC(=O)CSc2ccccc2N)sc1C,"inconclusive: 20.6 µM [activator, partial curve, poor fit]",–
O=C(c1ccco1)N(CCCN1CCOCC1)c1nc(-c2ccc(F)cc2)cs1,active: 9.2 µM,–
Cn1c(SCC(=O)Nc2ccc(NC(=O)c3ccccc3F)cc2)nnc1-c1ccncc1,"inconclusive: 4.61 µM [activator, full curve, poor fit]",–
CC(C)CNc1ncnc2c1cnn2Cc1ccccc1Cl,"inconclusive: 23.1 µM [inhibitor, single point]",–
CC(=O)Nc1cc(C(=O)NCCN2CCN(Cc3ccccc3)CC2)ccc1Sc1ccc(C)cc1,"inconclusive: 18.3 µM [inhibitor, partial curve, poor fit]",–
CCOc1ccc(NC(=O)C2CCN(C(=O)N3CCOc4ccccc43)CC2)cc1,–,inactive: -3.39%
CCCc1n(CC)c2ccccc2[n+]1CC(O)COC1CCCCC1 (stereo not drawn),active: 3.26 µM,–
O=C(Nc1ccc(NC(=S)NC(=O)c2cccs2)cc1)c1ccco1,–,inactive: -4.61%

# A few values from the list.
# activity change, negative = inhibition, CCOc1ccc(NC(=O)C2CCN(C(=O)N3CCOc4ccccc43)CC2)cc1 is entered as inactive: -3.39%
# Potency, O=C(c1ccco1)N(CCCN1CCOCC1)c1nc(-c2ccc(F)cc2)cs1 is entered as active: 9.2 µM
# activity change, negative = inhibition, CCOC(=O)N1CCc2c(sc3c2c(=O)n(Cc2ccccc2)c(=O)n3CC(=O)NCC2CCCO2)C1 (stereo not drawn) is entered as inactive: -8.32%
# activity change, negative = inhibition, COC(=O)CNC(c1ccccc1Cl)c1cc(Br)ccc1NS(=O)(=O)c1ccc(C)cc1 (stereo not drawn) is entered as inactive: 12.9%
# Potency, O=[N+]([O-])c1cc(S(=O)(=O)C(F)(F)F)ccc1Sc1nc2ccccc2[nH]1 is entered as inconclusive: 18.4 µM [activator, partial curve]
# Potency, Cc1nnc2ccc(-c3ccc(NC(=O)Cc4cccs4)cc3)nn12 is entered as inconclusive: 20.6 µM [activator, partial curve]

# (further entries)

Structure (SMILES),Potency,"activity change, negative = inhibition"
COCCNC(=O)Cn1ccc2cc(S(=O)(=O)N3CCCCC3)ccc21,–,inactive: -2.38%
O=C1CC(c2ccc(Cl)cc2)CC(=O)C1CS(=O)(=O)c1ccccc1 (stereo not drawn),"inconclusive: 0.651 µM [inhibitor, single point]",–
COc1ccc(NS(=O)(=O)c2ccc(C(=O)N3CCCCCC3)cc2)cc1,"inconclusive: 2.59 µM [inhibitor, partial curve, poor fit]",–
COc1cccc(C2CN(c3ccc(F)cc3F)N=C2c2cccs2)c1OC (stereo not drawn),"inconclusive: 29.1 µM [inhibitor, single point]",–
O=C(CSc1nc2ccc(Cl)cc2[nH]1)NCCc1ccc(Cl)cc1,–,inactive: -16.5%
O=C(CSc1ccccc1C(=O)O)NC1CCCCCC1,"inconclusive: 32.6 µM [activator, single point]",–
c1ccc(CSc2nnc(-c3ccco3)n2Cc2ccccc2)cc1,"inconclusive: 8.2 µM [activator, partial curve]",–
Cc1cccc(NC(=S)NNC(=O)c2csc(C(C)C)c2)c1,"inconclusive: 10.3 µM [activator, partial curve]",–
Cc1ccc(NS(=O)(=O)c2ccc(-c3cnc(C4CC4)o3)cc2)cc1,–,inactive: -7.25%
O=C(O)CCNc1cc(N2CCN(C(=O)c3ccco3)CC2)c2noc3c2c1C(=O)c1ccccc1-3,–,inactive: -0.54%
Cc1ccc(S(=O)(=O)NCC(=O)OCc2csc(-c3ccccc3)n2)cc1,"inconclusive: 18.4 µM [activator, single point]",–
C/C=C/c1ccc(OCC(=O)Nc2cc(S(=O)(=O)N3CCOCC3)ccc2N2CCCC2)c(OC)c1,"inconclusive: 13 µM [inhibitor, partial curve]",–
Cn1c(=O)c2c(nc(CN3CCN(c4ccc(F)cc4)CC3)n2Cc2ccccc2F)n(C)c1=O,active: 6.51 µM,–
O=C(N/N=C\c1cccnc1)c1cc(-c2ccccc2)nc2c(Cl)cccc12,"inconclusive: 18.3 µM [inhibitor, partial curve, poor fit]",–
COc1ccc(C(=O)N[C@H](C(=O)NCCCSc2ccccc2)C(C)C)cc1,"inconclusive: 29.1 µM [inhibitor, single point]",–
CCC(CO)Nc1ccc(-c2n[nH]c(=O)c3ccccc23)cc1[N+](=O)[O-] (stereo not drawn),"inconclusive: 5.8 µM [inhibitor, single point]",–
CCN(CC)c1ccc(/C=N/Nc2nn[nH]n2)cc1,"inconclusive: 6.51 µM [activator, single point]",–
C/C(=N\NC(=O)CCCC(=O)O)c1c(-c2ccccc2)c2cc(Cl)ccc2[nH]c1=O,–,inactive: 18.6%
COc1ccc(CN2CCN(C(=O)c3ccco3)CC2)cc1,–,inactive: -9.76%
Cc1cc(C)c(NC(=O)c2ccc(CN3CCc4ccccc4C3)cc2)c(C)c1,"inconclusive: 5.8 µM [inhibitor, partial curve, poor fit]",–
CC1(C)Cc2c(c(N3CCOCC3)nc3snc(Br)c23)CO1,active: 16.4 µM,–
O=[N+]([O-])c1ccc2c(c1)nc1n2CCN(CC2CCCO2)C1 (stereo not drawn),"inconclusive: 23.1 µM [activator, partial curve]",–
CC(C)n1ncc2c(C(=O)Nc3cccc(C#N)c3)cc(C3CC3)nc21,"inconclusive: 20.6 µM [inhibitor, single point]",–
CCCCCCCCCC[n+]1cccc2c3ccccc3ccc21,active: 2.31 µM,–
CCOc1cc(-c2noc(N)c2C(=O)OC)cc(OCC)c1OCC,"inconclusive: 1.3 µM [inhibitor, full curve]",–

Structure (SMILES),Potency,"activity change, negative = inhibition"
CCCc1ccc2oc(C(=O)N(C)Cc3ccn[nH]3)c(C)c2c1,"inconclusive: 18.3 µM [activator, partial curve]",–
O=C(COc1ccccc1)Nc1ccc(CSc2ccccc2)cc1,"inconclusive: 18.4 µM [activator, partial curve, poor fit]",–
Cc1nc(N)c(Cc2ccc(Cl)cc2Cl)c(N)n1,"inconclusive: 18.3 µM [inhibitor, partial curve]",–
O=P1(c2ccccc2)C=Cn2c1cc1c2CCCC1 (stereo not drawn),–,inactive: 1.53%
CC(C)C[C@@H]1NC(=O)[C@H](Cc2ccccc2)N(C)C(=O)[C@H](C)NC(=O)c2ccccc2NC(=O)[C@H](Cc2ccc(O)cc2)N(C)C1=O (cyclo([2Abz]A[NMeF]L[NMeY])),active: 6.51 µM,–
Cc1ccc(S(=O)(=O)CCC(=O)OC(C)c2nnc(-c3cccs3)o2)cc1 (stereo not drawn),–,inactive: 0%
COC(=O)C1=CN(C2CCCCC2)C=C(C(=O)OC)C1c1ccc2c(c1)OCO2,–,inactive: 6.86%
COc1ccc(C(=O)NC(=S)NNC(=O)c2ccco2)cc1,–,inactive: -10.7%
CCCCn1c(N)c(N(CCOC)C(=O)CN(C)S(=O)(=O)c2ccc(F)cc2)c(=O)[nH]c1=O,"inconclusive: 29.1 µM [activator, partial curve, poor fit]",–
c1ccc(CSc2nc3ncccn3n2)cc1,"inconclusive: 12.6 µM [activator, partial curve]",–
CCn1c2c(c(=N)c3c1CCC3)CCCC2,"inconclusive: 4.61 µM [inhibitor, single point]",–
O=C(CNC(=O)c1ccccc1)N/N=C/c1cc(Br)ccc1O,–,inactive: -29.4%
Cc1ccc(NC(=O)CN(C)C(=O)c2cc(C)on2)cc1,–,inactive: 22.9%
O=C(CCc1nnc2ccc(N3CCC4(CC3)OCCO4)nn12)N1CCCCC1,–,inactive: 9.05%
CCOc1ccc(Cc2nc(N)nc(N)n2)cc1,–,inactive: 9.58%
COCCNc1oc(-c2ccc(C)cc2)nc1C#N,"inconclusive: 11.6 µM [activator, partial curve]",–
CSc1ncccc1C(=O)Nc1cc(Cl)ccc1N1CCOCC1,–,inactive: 10.3%
CCOC(=O)C1(Nc2nccs2)Sc2ccccc2NC1=O (stereo not drawn),active: 7.31 µM,–
CC1=CC(=O)c2c(O)ccc(O)c2C1=O,–,inactive: -8.97%
CCn1ncc(C2=NOC(C(=O)NCc3ccc(OC)cc3)C2)c1C (stereo not drawn),–,inactive: -21%
NS(=O)(=O)c1ccc(CNS(=O)(=O)Cc2ccc(Cl)cc2)cc1,–,inactive: -5.01%
O=C1/C(=C/c2ccncc2)SC(=S)N1Nc1ccccc1,–,inactive: -16.8%
CCOC(=O)C1CCCN(C(=O)c2cc(-c3ccc(C)cc3)on2)C1 (stereo not drawn),"inconclusive: 3.26 µM [activator, full curve]",–
